Experimental data: PubChem BioAssay AID686937 (Drosophila RNAi Screening Center, 2013)
The screen tested about 23,000 reagents; shown is an unselected part of those that have a named target and a result. 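Reduced-secretion tags in replicate 1 do not always agree with the z-scores; no criterion for assigning the tags was given.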 Reagents against one gene are numbered here. Reagent sequences are not shown. The record does not give: the amount of reagent.

- Aim: 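Genes whose loss weakens secretory pathway function in fly cells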 (primary screen)
- System: Drosophila S2 cells expressing secreted horseradish peroxidase
- Reagents: long dsRNA against Drosophila genes
- Duration: about 5.5 days (5 days dsRNA, then 12 h reporter induction)
- Challenge: reporter expression induced after 5 days of dsRNA, read 12 h later; inducer not stated
- Detection: 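After 5 days of dsRNA and 12 h of reporter induction, medium peroxidase read by chemiluminescence and scored as per-plate z-score; higher values mean more reporter released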
- Scale: z-score: higher = more reporter secreted into medium

| Gene | reagent no. | z-score, replicate 1 | z-score, replicate 2 | z-score, replicate 3 | z-score, replicate 4 | phenotype, replicate 1 |
| --- | --- | --- | --- | --- | --- | --- |
| CG17776 | 1 | 0.33 | 0.14 | – | – | – |
| CG3690 | 1 | 0.47 | 0.42 | – | – | – |
| CG3690 | 2 | 0.42 | 0.33 | – | – | – |
| Ip6k (Inositol hexakisphosphate kinase) | 1 | -0.18 | 0.33 | – | – | – |
| CG4781 | 1 | -0.23 | 0.18 | – | – | – |
| Top2 (Topoisomerase 2) | 1 | 0.81 | -0.78 | – | – | – |
| 7B2 | 1 | 0.31 | 0.67 | – | – | – |
| chinmo (Chronologically inappropriate morphogenesis) | 1 | 0.07 | 0.32 | – | – | – |
| chinmo (Chronologically inappropriate morphogenesis) | 2 | 0.04 | -0.2 | – | – | – |
| chinmo (Chronologically inappropriate morphogenesis) | 3 | -1.68 | -0.53 | – | – | reduced secretion |
| chinmo (Chronologically inappropriate morphogenesis) | 4 | -0.3 | 0.23 | – | – | – |
| CG10802 | 1 | 0.2 | 0.28 | – | – | – |
| lncRNA:CR31781 (long non-coding RNA:CR31781) | 1 | -7.74 | 0.53 | – | – | reduced secretion |
| lncRNA:CR31781 (long non-coding RNA:CR31781) | 2 | 0.83 | 0.41 | – | – | – |
| CG10669 | 1 | -0.23 | -0.02 | – | – | – |
| CG5043 | 1 | -0.25 | -0.12 | – | – | – |
| CG33061 | 1 | -0.02 | 0.23 | – | – | – |
| CG33061 | 2 | -1.21 | -0.09 | – | – | – |
| TotB (Turandot B) | 1 | 0.32 | 0.33 | – | – | – |
| CG12105 | 1 | 0.43 | 0.36 | – | – | – |
| Jhe (Juvenile hormone esterase) | 1 | 0.3 | 0.16 | – | – | – |
| CG14488 | 1 | 0.56 | -0.01 | – | – | – |
| GILT2 (Gamma-interferon-inducible lysosomal thiol reductase 2) | 1 | 0.32 | 0.25 | – | – | – |
| tty (tweety) | 1 | 0.31 | 0.53 | – | – | – |
| Atx2 (Ataxin-2) | 1 | -4.74 | -3.96 | – | – | reduced secretion |
| Sodh1 (Sorbitol dehydrogenase 1) | 1 | 0.35 | 0.03 | – | – | – |
| Hrb87F (Heterogeneous nuclear ribonucleoprotein at 87F) | 1 | 0.1 | 0.29 | – | – | – |
| CG1246 | 1 | 0.56 | 0.14 | – | – | – |
| CG12075 | 1 | -0.12 | 0.05 | – | – | – |
| rgn (regeneration) | 1 | 0.35 | 0.44 | – | – | – |
| CG31600 | 1 | -0.17 | -0.23 | – | – | – |
| CG32054 | 1 | 0.33 | 0.2 | – | – | – |
| msl-3 (male-specific lethal 3) | 1 | 0.56 | 0.12 | – | – | – |
| phr (photorepair) | 1 | 0.54 | 0.4 | – | – | – |

Look-ups from the entries so far.
Under “z-score, replicate 1”, rgn (regeneration) has 0.35
CG32054, z-score, replicate 1 → 0.33
Under “z-score, replicate 2”, chinmo (Chronologically inappropriate morphogenesis) #2 has -0.2
Result of Top2 (Topoisomerase 2) in “z-score, replicate 1”: 0.81
Under “z-score, replicate 1”, CG5043 is entered as -0.25

More entries follow.
| Gene | reagent no. | z-score, replicate 1 | z-score, replicate 2 | z-score, replicate 3 | z-score, replicate 4 | phenotype, replicate 1 |
| --- | --- | --- | --- | --- | --- | --- |
| Mal-A2 (Maltase A2) | 1 | 0.16 | 0.17 | – | – | – |
| mthl12 (methuselah-like 12) | 1 | 0.74 | 0.53 | – | – | – |
| CG16904 | 1 | 0.35 | 0.49 | – | – | – |
| Nprl3 (Nitrogen permease regulator-like 3) | 1 | 0.66 | 0.56 | – | – | – |
| Obp56i (Odorant-binding protein 56i) | 1 | 0.38 | 0.05 | – | – | – |
| BomT3 (Bomanin Tailed 3) | 1 | 0.13 | 0.48 | – | – | – |
| BomT3 (Bomanin Tailed 3) | 2 | 0.16 | 0.36 | – | – | – |
| Naus (Nausicaa) | 1 | 0.24 | 0.54 | – | – | – |
| Naus (Nausicaa) | 2 | 0.57 | 0.52 | – | – | – |
| CG17327 | 1 | 0.62 | 0.11 | – | – | – |
| iav (inactive) | 1 | 0.1 | 0.08 | – | – | – |
| Tsp42Eo (Tetraspanin 42Eo) | 1 | 0.33 | 0.2 | – | – | – |
| Lim3 | 1 | 0.41 | 0.54 | – | – | – |
| Lim3 | 2 | -3.23 | -1.2 | – | – | reduced secretion |
| Lim3 | 3 | -0.69 | -1.82 | – | – | reduced secretion |
| Lim3 | 4 | -0.2 | 0.36 | – | – | – |
| CG34001 | 1 | 0.31 | 0.29 | – | – | – |
| BomS5 (Bomanin Short 5) | 1 | -0.14 | -0.38 | – | – | – |
| msn (misshapen) | 1 | 0.08 | 0.25 | – | – | – |
| msn (misshapen) | 2 | 0.08 | 0.2 | – | – | – |
| opa (odd paired) | 1 | -0.2 | 0.25 | – | – | – |
| opa (odd paired) | 2 | 0.11 | 0.22 | – | – | – |
| vri (vrille) | 1 | 0.28 | -0.17 | – | – | – |
| SmydA-6 (SET and MYND domain containing, arthropod-specific, member 6) | 1 | 0.26 | 0.26 | – | – | – |
| mura (murashka) | 1 | -0.43 | -0.93 | – | – | – |
| mura (murashka) | 2 | -5.77 | -2.84 | – | – | reduced secretion |
| Dpck (Dephospho-CoA kinase) | 1 | 0.31 | 0.29 | – | – | – |
| CG15625 | 1 | 0 | 0.16 | – | – | – |
| spg (sponge) | 1 | 0.24 | 0.26 | – | – | – |
| spg (sponge) | 2 | 0.05 | 0.31 | – | – | – |
| CG6610 | 1 | 0.11 | 0.23 | – | – | – |
| Hibch (3-hydroxyisobutyryl-CoA hydrolase) | 1 | 0.1 | 0.23 | – | – | – |
| CG14110 | 1 | 0.68 | 0.4 | – | – | – |
| Spc25 | 1 | -1.67 | -0.97 | – | – | reduced secretion |
| CG8323 | 1 | 0.32 | -0.02 | – | – | – |
| CG8508 | 1 | 0.28 | 0.27 | – | – | – |
| CG16863 | 1 | -0.08 | -0.12 | – | – | – |
| Usp15-31 (Ubiquitin specific protease 15/31) | 1 | 0.05 | 0.14 | – | – | – |
| Usp15-31 (Ubiquitin specific protease 15/31) | 2 | -1.41 | -1.07 | – | – | – |
| nord | 1 | 0.25 | 0.25 | – | – | – |
| nord | 2 | 0.13 | 0.2 | – | – | – |
| COX5BL (Cytochrome c oxidase subunit 5B-like) | 1 | 0.08 | 0.41 | – | – | – |
| CG4849 | 1 | -4.19 | -2.67 | – | – | reduced secretion |
| Rpn6 (Regulatory particle non-ATPase 6) | 1 | -7.21 | -6.31 | – | – | reduced secretion |
| Gr57a (Gustatory receptor 57a) | 1 | 0.54 | 0.49 | – | – | – |
| CG7988 | 1 | 0.2 | 0.33 | – | – | – |
| CG7860 | 1 | 0.33 | 0.31 | – | – | – |
| zetaTry (zetaTrypsin) | 1 | -0.39 | -0.54 | – | – | – |
| CG34396 | 1 | 0.3 | 0.39 | – | – | – |
| CG34396 | 2 | 0.19 | 0.09 | – | – | – |
| CG9590 | 1 | -0.03 | 0.26 | – | – | – |
| Spt6 | 1 | -4.37 | -3.6 | – | – | reduced secretion |
| CG34269 | 1 | 0.07 | 0.38 | – | – | – |
| hubl (hug-bell) | 1 | 0.17 | 0.29 | – | – | – |
| Non2 (Novel nucleolar protein 2) | 1 | 0.22 | 0.15 | – | – | – |
| Dnaaf6 (Dynein axonemal assembly factor 6) | 1 | 0.25 | 0.11 | – | – | – |
| LamC (Lamin C) | 1 | 0.46 | 0.46 | – | – | – |
| CG9992 | 1 | 0.35 | -0.01 | – | – | – |
| CG9992 | 2 | -0.42 | -0.37 | – | – | – |
| CG4631 | 1 | 0.12 | 0.02 | 0.44 | 0.11 | – |
| CG4631 | 2 | 0.51 | 0.19 | – | – | – |
| hfw (halfway) | 1 | 0.28 | 0.34 | – | – | – |
| Cdk12 (Cyclin-dependent kinase 12) | 1 | 0.05 | 0.06 | – | – | – |
| kug (kugelei) | 1 | 0.24 | -0.11 | – | – | – |
| SPR (Sex peptide receptor) | 1 | 0.32 | 0.44 | – | – | – |
| SPR (Sex peptide receptor) | 2 | 0.59 | 0.3 | – | – | – |
| SPR (Sex peptide receptor) | 3 | 0.56 | 0.34 | – | – | – |
| SPR (Sex peptide receptor) | 4 | 0.02 | -0.52 | – | – | – |
| CG9547 | 1 | 0.27 | 0.16 | – | – | – |
| CG30392 | 1 | -0.35 | -0.66 | – | – | reduced secretion |
